In PMC9425024:

Target: T1, bZIP25-cYFP (UniProt Q9M1G6)
T1 sequence: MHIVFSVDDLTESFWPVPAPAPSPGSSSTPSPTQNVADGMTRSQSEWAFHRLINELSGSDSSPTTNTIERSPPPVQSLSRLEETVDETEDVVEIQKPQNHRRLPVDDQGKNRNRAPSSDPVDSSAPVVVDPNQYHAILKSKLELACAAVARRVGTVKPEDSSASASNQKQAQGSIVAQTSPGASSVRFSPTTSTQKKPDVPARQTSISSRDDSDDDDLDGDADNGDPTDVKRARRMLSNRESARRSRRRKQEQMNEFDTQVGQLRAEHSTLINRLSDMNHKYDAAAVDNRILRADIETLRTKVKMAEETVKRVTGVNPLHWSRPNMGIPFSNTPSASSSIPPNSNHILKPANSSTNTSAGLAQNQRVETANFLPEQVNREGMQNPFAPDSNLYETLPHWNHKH
Experiment: split reporter; BiFC with split YFP (pA7-nYFP, pA7-cYFP, CaMV35S promoter), pairs cotransformed into A. thaliana Col-0 protoplasts, fluorescence microscopy; binder written here = nYFP fusion, target = cYFP fusion

Substance: CTD ProXp-ala fused to split YFP (CTD-nYFP, CTD-cYFP) (Arabidopsis thaliana) (domain or fragment)
- binding: no binding

These are yes or no findings as the source states them, for the method shown. Binding seen in cells or lysates may run through a third protein. Where a sequence is shown, tags or fusion partners need not be part of it.
